These are yes or no findings as the source states them, for the method shown. Binding seen in cells or lysates may run through a third protein. Some results given as binding are weak or reduced against the parent protein; the word gives no strength. Where a sequence is shown, tags or fusion partners need not be part of it. Each block holds one molecule with its values, some of them ahead of it.
How the values were obtained:
HA-tagged NRF2 = biological target: T1, HA-tagged NRF2 (UniProt Q16236); assay: co-IP; 293T cells co-transfected with FLAG-SNF2L and HA-NRF2 plasmids for 24 h; sonicated in RIPA buffer with proteinase inhibitor; 1 mg total protein precipitated overnight with anti-HA or anti-FLAG antibodies on Protein A/G Dynabeads; five RIPA washes; western blot with anti-HA and anti-FLAG
T1 sequence: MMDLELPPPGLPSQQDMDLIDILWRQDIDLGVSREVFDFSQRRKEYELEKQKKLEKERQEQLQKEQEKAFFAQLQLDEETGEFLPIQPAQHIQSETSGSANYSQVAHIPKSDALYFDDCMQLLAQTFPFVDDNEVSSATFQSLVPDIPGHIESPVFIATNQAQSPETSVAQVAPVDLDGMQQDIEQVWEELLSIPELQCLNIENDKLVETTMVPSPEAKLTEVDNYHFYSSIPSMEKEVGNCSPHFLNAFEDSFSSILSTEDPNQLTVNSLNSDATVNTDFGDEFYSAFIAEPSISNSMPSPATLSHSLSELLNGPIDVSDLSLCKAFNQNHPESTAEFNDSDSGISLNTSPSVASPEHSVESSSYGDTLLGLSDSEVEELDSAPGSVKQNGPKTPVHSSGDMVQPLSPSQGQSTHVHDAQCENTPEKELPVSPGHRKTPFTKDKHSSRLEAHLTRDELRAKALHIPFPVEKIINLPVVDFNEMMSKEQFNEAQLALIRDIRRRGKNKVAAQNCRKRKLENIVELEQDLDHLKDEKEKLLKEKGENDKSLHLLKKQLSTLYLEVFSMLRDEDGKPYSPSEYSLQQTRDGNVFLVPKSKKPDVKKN

By UniProt entry, the sequences of proteins in these tests, tags left out.
UniProt P28370: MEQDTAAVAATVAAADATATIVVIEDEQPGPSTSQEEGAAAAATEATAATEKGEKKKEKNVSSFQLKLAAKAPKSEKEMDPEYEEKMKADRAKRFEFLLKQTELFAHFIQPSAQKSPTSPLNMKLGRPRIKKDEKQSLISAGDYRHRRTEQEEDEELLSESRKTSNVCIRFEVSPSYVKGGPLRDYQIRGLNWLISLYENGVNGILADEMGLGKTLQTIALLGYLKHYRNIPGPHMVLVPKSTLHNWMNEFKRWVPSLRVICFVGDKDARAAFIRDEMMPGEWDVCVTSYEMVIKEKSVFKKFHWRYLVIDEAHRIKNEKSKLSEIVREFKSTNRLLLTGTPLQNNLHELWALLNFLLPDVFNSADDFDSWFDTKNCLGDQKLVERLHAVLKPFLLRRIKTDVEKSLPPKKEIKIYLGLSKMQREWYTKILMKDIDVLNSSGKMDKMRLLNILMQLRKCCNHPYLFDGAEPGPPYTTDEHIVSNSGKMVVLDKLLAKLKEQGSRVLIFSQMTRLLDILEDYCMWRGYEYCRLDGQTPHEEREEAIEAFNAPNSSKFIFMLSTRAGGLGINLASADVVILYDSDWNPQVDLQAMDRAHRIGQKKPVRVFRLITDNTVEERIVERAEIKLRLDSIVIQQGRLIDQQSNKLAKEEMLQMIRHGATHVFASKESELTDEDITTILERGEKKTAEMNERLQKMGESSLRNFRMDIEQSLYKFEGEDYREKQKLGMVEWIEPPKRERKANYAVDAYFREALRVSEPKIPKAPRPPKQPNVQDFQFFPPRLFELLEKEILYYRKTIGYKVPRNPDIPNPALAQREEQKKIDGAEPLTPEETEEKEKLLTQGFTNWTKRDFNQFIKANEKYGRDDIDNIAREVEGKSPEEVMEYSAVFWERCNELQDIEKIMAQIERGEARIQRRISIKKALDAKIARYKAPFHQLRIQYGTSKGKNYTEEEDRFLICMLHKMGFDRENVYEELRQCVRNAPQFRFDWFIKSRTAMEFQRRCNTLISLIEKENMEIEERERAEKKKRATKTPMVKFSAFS

FLAG-tagged SNF2L = FLAG-tagged SNF2L (UniProt P28370); assay: as above

binding (HA-tagged NRF2): binds
Molecule: FLAG-tagged SNF2L (from UniProt P28370 1-1042)

binding (FLAG-tagged SNF2L): binds
B1: HA-tagged NRF2 (protein, UniProt Q16236 1-605)
chain: T1 sequence

Reference: PMC11557580
